Experimental data reported in PMC5777814.
These are yes or no findings as the source states them, for the method shown. Binding seen in cells or lysates may run through a third protein. Some results given as binding are weak or reduced against the parent protein; the word gives no strength. For some assays here: Where a sequence is shown, tags or fusion partners need not be part of it. Blank lines part the entries; values can stand above or below the molecule they belong to.

The chains behind the UniProt entries cited, without tags or fusion partners.
UniProt P35222: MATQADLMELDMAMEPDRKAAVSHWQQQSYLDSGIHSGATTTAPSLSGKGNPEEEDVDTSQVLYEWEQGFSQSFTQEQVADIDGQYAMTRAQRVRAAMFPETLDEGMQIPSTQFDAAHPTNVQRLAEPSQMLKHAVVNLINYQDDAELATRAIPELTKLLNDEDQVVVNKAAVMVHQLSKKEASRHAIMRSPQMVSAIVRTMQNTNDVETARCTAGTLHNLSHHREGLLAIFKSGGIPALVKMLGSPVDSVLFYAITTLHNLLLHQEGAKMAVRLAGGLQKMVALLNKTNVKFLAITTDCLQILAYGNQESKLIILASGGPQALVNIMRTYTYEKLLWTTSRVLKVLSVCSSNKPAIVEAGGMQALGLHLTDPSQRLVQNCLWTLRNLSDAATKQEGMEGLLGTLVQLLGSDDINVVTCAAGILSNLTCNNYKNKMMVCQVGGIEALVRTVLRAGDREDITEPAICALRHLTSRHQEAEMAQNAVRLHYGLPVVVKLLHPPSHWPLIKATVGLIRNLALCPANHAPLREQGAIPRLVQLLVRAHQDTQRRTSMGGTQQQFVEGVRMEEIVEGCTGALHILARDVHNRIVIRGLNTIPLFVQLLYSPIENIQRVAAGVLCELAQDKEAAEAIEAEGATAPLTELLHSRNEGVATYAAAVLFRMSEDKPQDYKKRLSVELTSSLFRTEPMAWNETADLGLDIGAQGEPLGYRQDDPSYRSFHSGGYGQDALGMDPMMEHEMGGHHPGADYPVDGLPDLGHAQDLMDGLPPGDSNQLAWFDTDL

Experiments:
Flag-DVL1 = target: T1, Flag-DVL1 (UniProt O14640); test: co-IP; HCT-8/VCR cells cotransfected with pcDNA3.1-Flag-DVL and pcDNA3.1-HA-β-catenin for 72 h, nuclear fraction; IP with anti-Flag, blot with anti-HA; IgG as negative control
T1 sequence: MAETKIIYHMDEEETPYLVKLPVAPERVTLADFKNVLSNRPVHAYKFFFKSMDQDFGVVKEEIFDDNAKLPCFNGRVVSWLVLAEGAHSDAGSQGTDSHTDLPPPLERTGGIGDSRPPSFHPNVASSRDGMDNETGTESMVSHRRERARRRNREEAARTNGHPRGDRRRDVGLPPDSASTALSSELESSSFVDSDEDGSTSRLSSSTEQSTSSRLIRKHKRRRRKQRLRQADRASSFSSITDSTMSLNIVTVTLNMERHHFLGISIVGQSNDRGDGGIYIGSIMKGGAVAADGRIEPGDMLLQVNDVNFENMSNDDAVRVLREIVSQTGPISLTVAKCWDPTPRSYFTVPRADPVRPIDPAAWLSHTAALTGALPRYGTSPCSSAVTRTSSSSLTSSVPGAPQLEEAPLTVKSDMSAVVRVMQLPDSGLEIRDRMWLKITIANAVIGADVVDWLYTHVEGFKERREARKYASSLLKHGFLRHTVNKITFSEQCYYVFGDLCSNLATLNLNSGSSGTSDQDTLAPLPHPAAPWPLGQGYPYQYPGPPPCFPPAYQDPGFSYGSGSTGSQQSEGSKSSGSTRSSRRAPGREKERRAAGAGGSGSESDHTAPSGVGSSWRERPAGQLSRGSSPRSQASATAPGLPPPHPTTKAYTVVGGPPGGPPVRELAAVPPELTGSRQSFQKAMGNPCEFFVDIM

Flag-DVL3 (human) = target: T2, Flag-DVL3 (human) (UniProt Q92997); test: as above
T2 sequence: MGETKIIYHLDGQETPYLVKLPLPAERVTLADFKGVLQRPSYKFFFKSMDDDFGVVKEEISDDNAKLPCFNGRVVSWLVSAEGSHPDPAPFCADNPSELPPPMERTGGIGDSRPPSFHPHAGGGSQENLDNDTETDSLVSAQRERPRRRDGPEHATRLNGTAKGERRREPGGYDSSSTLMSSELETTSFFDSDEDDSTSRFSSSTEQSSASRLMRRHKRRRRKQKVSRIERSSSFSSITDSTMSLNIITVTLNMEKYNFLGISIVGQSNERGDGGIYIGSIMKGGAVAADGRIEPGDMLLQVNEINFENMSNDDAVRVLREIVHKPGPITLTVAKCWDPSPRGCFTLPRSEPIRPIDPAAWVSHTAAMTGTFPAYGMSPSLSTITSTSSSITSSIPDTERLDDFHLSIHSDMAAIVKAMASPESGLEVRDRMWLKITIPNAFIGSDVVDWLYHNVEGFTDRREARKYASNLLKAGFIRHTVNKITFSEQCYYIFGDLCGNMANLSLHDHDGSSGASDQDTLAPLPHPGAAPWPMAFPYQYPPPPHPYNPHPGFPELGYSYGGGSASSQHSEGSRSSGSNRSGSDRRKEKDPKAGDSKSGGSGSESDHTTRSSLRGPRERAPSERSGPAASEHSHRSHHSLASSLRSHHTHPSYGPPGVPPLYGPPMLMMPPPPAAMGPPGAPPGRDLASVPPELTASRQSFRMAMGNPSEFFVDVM

[1] = target: T3, Dishevelled3 (DVL3), endogenous (human (endogenous in HCT-8/VCR)) (UniProt Q92997); test: co-IP; endogenous proteins, total cellular or nuclear fractions of untransfected HCT-8/VCR cells; IP with anti-DVL1, anti-DVL2, anti-DVL3 or anti-β-catenin, protein A+G agarose, 4°C; both directions; IgG as negative control
T3 sequence: T2 sequence

[2] = target: T4, Dishevelled1 (DVL1), endogenous (human (endogenous in HCT-8/VCR)) (UniProt O14640); test: as above
T4 sequence: T1 sequence

[3] = target: β-catenin, endogenous (human (endogenous in HCT-8 and HCT-8/VCR)) (UniProt P35222); test: as above

- binding (Flag-DVL1): binds
- binding (Flag-DVL3 (human)): binds
Molecule: HA-β-catenin (from UniProt P35222 1-781)

- binding [1]: binds
- binding [2]: binds
Molecule: β-catenin, endogenous (from UniProt P35222 1-781)

- binding [3]: binds
B1: Dishevelled1 (DVL1), endogenous (protein, UniProt O14640 1-695)
chain: T1 sequence
